Measurements from the supplement of paper PMC11546906.
Counter-ions that a name gives are not always drawn. The list shows a part of the results. This data set is noisy: repeats of one test often differ as much as different tests do.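 Screen of FDA-approved drugs, each combined with colistin at one-eighth of its MIC, against a multidrug-resistant mcr-1-positive clinical E. coli isolate; growth read as OD600 after 24 h. Bacteria without drug were the growth control and plain broth the blank. A combination counted as active when OD600 fell below 0.2.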

Each compound was assayed on Escherichia coli 42 (mcr-1-positive clinical isolate) (assay: OD600 after 24 h growth with compound plus colistin (absorbance units (OD600)); higher = more bacterial growth (less inhibition)). Settings: first compound 25 µM; colistin concentration 0.5 ug/mL; incubation time 24 h; 37 °C.

Row | Structure (SMILES) | OD600
1 | COc1ccc2c3c1O[C@H]1C[C@@H](O)C=C[C@@]31CCN(C)C2 [Galanthamine hydrobromide] + CCC(C)CCCC(=O)N[C@@H](CCN)C(=O)N[C@H](C(=O)N[C@@H](CCN)C(=O)N[C@H]1CCNC(=O)[C@H]([C@@H](C)O)NC(=O)[C@H](CCN)NC(=O)[C@H](CCN)NC(=O)[C@H](CC(C)C)NC(=O)[C@@H](CC(C)C)NC(=O)[C@H](CCN)NC1=O)[C@@H](C)O [colistin] | inactive: 1.14
2 | CN(C)CCOC(c1ccc(Cl)cc1)c1ccccn1 (stereo not drawn) [Carbinoxamine Maleate Salt] + CCC(C)CCCC(=O)N[C@@H](CCN)C(=O)N[C@H](C(=O)N[C@@H](CCN)C(=O)N[C@H]1CCNC(=O)[C@H]([C@@H](C)O)NC(=O)[C@H](CCN)NC(=O)[C@H](CCN)NC(=O)[C@H](CC(C)C)NC(=O)[C@@H](CC(C)C)NC(=O)[C@H](CCN)NC1=O)[C@@H](C)O [colistin] | inactive: 1.08
3 | Cc1cn([C@@H]2C[C@@H](O)[C@H](CO)O2)c(=O)[nH]c1=O [Telbivudine] + CCC(C)CCCC(=O)N[C@@H](CCN)C(=O)N[C@H](C(=O)N[C@@H](CCN)C(=O)N[C@H]1CCNC(=O)[C@H]([C@@H](C)O)NC(=O)[C@H](CCN)NC(=O)[C@H](CCN)NC(=O)[C@H](CC(C)C)NC(=O)[C@@H](CC(C)C)NC(=O)[C@H](CCN)NC1=O)[C@@H](C)O [colistin] | inactive: 1.05
4 | CC(=O)OCC(=O)[C@@]1(O)CC[C@H]2[C@@H]3CCC4=CC(=O)CC[C@]4(C)[C@H]3[C@@H](O)C[C@@]21C [Hydrocortisone acetate] + CCC(C)CCCC(=O)N[C@@H](CCN)C(=O)N[C@H](C(=O)N[C@@H](CCN)C(=O)N[C@H]1CCNC(=O)[C@H]([C@@H](C)O)NC(=O)[C@H](CCN)NC(=O)[C@H](CCN)NC(=O)[C@H](CC(C)C)NC(=O)[C@@H](CC(C)C)NC(=O)[C@H](CCN)NC1=O)[C@@H](C)O [colistin] | inactive: 1.12
5 | Oc1ncnc2[nH]ncc12 [Allopurinol] + CCC(C)CCCC(=O)N[C@@H](CCN)C(=O)N[C@H](C(=O)N[C@@H](CCN)C(=O)N[C@H]1CCNC(=O)[C@H]([C@@H](C)O)NC(=O)[C@H](CCN)NC(=O)[C@H](CCN)NC(=O)[C@H](CC(C)C)NC(=O)[C@@H](CC(C)C)NC(=O)[C@H](CCN)NC1=O)[C@@H](C)O [colistin] | inactive: 0.895
6 | O=C1Cc2cc(CCN3CCN(c4nsc5ccccc45)CC3)c(Cl)cc2N1 [Ziprasidone hydrochloride] + CCC(C)CCCC(=O)N[C@@H](CCN)C(=O)N[C@H](C(=O)N[C@@H](CCN)C(=O)N[C@H]1CCNC(=O)[C@H]([C@@H](C)O)NC(=O)[C@H](CCN)NC(=O)[C@H](CCN)NC(=O)[C@H](CC(C)C)NC(=O)[C@@H](CC(C)C)NC(=O)[C@H](CCN)NC1=O)[C@@H](C)O [colistin] | inactive: 0.672
7 | COc1cc2/c(=N/c3ccc(Br)cc3F)nc[nH]c2cc1OCC1CCN(C)CC1 [Vandetanib] + CCC(C)CCCC(=O)N[C@@H](CCN)C(=O)N[C@H](C(=O)N[C@@H](CCN)C(=O)N[C@H]1CCNC(=O)[C@H]([C@@H](C)O)NC(=O)[C@H](CCN)NC(=O)[C@H](CCN)NC(=O)[C@H](CC(C)C)NC(=O)[C@@H](CC(C)C)NC(=O)[C@H](CCN)NC1=O)[C@@H](C)O [colistin] | inactive: 1.08
8 | Cc1cnc(Nc2ccc(OCCN3CCCC3)cc2)nc1Nc1cccc(S(=O)(=O)NC(C)(C)C)c1 [Fedratinib] + CCC(C)CCCC(=O)N[C@@H](CCN)C(=O)N[C@H](C(=O)N[C@@H](CCN)C(=O)N[C@H]1CCNC(=O)[C@H]([C@@H](C)O)NC(=O)[C@H](CCN)NC(=O)[C@H](CCN)NC(=O)[C@H](CC(C)C)NC(=O)[C@@H](CC(C)C)NC(=O)[C@H](CCN)NC1=O)[C@@H](C)O [colistin] | inactive: 0.9

At a glance, some entries already given.
Row | Structure (SMILES) | OD600
2 | CN(C)CCOC(c1ccc(Cl)cc1)c1ccccn1 (stereo not drawn) [Carbinoxamine Maleate Salt] + CCC(C)CCCC(=O)N[C@@H](CCN)C(=O)N[C@H](C(=O)N[C@@H](CCN)C(=O)N[C@H]1CCNC(=O)[C@H]([C@@H](C)O)NC(=O)[C@H](CCN)NC(=O)[C@H](CCN)NC(=O)[C@H](CC(C)C)NC(=O)[C@@H](CC(C)C)NC(=O)[C@H](CCN)NC1=O)[C@@H](C)O [colistin] | inactive: 1.08
3 | Cc1cn([C@@H]2C[C@@H](O)[C@H](CO)O2)c(=O)[nH]c1=O [Telbivudine] + CCC(C)CCCC(=O)N[C@@H](CCN)C(=O)N[C@H](C(=O)N[C@@H](CCN)C(=O)N[C@H]1CCNC(=O)[C@H]([C@@H](C)O)NC(=O)[C@H](CCN)NC(=O)[C@H](CCN)NC(=O)[C@H](CC(C)C)NC(=O)[C@@H](CC(C)C)NC(=O)[C@H](CCN)NC1=O)[C@@H](C)O [colistin] | inactive: 1.05
